{"sequences": {"note": "Amino acid sequences for entries named in this document (tags omitted). A change or cut given only in a name is not applied to a line headed by its entry.", "UniProt Q9H1Z4": "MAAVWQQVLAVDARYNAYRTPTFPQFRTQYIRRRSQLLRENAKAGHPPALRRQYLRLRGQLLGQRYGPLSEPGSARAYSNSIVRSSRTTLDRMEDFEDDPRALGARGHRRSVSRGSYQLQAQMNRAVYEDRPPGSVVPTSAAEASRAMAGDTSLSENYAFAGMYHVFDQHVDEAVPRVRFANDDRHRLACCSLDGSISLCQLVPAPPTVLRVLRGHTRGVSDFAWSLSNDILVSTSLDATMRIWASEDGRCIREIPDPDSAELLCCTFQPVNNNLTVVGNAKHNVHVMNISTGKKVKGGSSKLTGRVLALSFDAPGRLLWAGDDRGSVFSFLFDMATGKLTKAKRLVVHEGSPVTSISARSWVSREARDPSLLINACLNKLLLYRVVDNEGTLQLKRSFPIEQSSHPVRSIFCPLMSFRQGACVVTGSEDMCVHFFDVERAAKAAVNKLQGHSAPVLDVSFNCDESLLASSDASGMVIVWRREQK", "UniProt Q9BZI7": "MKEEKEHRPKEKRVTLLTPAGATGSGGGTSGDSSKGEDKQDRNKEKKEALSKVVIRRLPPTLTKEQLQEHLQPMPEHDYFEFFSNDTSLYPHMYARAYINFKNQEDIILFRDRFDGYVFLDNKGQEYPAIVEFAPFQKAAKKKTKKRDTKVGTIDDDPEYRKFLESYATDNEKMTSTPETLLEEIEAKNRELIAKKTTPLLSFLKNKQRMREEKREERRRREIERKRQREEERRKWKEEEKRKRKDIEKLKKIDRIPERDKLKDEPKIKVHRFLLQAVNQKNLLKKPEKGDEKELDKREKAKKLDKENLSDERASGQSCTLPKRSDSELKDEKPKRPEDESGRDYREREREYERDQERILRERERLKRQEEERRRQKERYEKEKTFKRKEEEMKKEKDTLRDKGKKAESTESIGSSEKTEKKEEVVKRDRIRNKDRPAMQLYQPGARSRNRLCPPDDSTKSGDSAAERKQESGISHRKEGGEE", "UniProt Q9H000": "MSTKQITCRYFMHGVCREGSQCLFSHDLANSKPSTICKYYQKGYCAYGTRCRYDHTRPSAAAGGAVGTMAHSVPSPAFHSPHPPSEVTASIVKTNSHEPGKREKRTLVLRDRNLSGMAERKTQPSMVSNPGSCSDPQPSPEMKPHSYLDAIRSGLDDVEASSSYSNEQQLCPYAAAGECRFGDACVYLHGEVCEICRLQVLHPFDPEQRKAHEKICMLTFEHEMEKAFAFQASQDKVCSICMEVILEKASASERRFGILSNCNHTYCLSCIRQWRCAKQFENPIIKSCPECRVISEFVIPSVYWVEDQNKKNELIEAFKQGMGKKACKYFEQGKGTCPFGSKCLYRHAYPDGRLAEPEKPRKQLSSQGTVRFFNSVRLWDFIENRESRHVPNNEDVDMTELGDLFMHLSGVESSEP", "UniProt Q9H1M0": "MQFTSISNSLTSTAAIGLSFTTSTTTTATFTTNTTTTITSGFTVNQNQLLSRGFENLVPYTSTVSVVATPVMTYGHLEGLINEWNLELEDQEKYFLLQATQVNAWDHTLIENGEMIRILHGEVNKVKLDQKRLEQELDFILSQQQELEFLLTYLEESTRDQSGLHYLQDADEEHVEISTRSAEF", "UniProt Q9H0A9": "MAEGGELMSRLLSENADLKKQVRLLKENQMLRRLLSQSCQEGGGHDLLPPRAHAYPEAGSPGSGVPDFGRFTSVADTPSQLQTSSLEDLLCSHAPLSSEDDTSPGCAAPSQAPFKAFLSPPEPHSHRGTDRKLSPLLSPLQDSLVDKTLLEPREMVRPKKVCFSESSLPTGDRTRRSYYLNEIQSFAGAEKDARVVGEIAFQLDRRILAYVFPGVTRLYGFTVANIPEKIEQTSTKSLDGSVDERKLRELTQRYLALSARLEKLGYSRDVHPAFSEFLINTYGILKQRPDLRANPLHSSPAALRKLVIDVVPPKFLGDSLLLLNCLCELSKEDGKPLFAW", "UniProt Q9BYX2": "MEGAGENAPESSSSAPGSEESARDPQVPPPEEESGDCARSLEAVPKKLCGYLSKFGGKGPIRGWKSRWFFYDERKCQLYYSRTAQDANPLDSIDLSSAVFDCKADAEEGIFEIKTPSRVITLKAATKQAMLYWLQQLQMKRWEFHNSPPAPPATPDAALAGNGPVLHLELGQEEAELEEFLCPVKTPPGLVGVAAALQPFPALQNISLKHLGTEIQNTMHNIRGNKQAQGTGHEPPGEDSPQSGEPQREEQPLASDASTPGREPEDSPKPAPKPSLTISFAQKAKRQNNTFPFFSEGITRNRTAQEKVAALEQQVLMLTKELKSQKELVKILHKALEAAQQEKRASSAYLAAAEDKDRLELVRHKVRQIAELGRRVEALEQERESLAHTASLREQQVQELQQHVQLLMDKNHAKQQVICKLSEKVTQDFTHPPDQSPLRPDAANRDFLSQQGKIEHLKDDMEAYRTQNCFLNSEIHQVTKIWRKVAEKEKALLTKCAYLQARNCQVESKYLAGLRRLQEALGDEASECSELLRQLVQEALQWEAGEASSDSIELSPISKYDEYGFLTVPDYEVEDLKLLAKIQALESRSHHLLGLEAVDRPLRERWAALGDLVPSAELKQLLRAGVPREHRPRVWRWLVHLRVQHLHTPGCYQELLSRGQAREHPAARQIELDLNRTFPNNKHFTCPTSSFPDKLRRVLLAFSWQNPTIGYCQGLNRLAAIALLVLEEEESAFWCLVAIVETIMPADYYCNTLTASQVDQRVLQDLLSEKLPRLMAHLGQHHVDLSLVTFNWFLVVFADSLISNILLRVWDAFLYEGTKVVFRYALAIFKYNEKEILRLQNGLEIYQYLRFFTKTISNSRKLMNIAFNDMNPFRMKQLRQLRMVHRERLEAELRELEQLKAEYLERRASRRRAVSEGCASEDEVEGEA", "UniProt Q9H2G9": "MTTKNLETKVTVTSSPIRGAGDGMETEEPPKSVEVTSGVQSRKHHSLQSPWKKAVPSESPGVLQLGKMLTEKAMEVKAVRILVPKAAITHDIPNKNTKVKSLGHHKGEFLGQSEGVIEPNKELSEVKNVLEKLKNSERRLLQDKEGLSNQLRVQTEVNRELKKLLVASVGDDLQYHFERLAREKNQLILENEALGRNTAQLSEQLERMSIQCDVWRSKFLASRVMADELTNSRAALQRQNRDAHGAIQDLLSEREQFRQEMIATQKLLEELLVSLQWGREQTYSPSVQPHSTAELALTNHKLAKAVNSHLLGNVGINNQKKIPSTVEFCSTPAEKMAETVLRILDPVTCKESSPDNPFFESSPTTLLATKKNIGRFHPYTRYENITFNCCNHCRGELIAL", "UniProt Q9BWN1": "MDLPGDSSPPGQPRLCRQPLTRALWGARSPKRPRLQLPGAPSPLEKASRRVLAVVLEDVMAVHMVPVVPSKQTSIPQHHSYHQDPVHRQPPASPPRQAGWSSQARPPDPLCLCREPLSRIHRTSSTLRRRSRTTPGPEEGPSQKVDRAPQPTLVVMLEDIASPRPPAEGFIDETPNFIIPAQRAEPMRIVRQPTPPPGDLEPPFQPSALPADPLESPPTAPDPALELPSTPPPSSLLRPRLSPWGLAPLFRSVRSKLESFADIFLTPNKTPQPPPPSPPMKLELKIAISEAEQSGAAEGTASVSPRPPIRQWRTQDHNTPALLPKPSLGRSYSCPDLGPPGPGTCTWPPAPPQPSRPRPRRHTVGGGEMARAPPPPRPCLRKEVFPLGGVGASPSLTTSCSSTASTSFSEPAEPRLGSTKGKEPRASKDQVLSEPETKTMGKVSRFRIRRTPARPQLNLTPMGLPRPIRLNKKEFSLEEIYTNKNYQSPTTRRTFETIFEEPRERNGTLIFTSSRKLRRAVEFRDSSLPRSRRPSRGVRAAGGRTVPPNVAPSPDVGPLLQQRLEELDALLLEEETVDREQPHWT", "UniProt Q9H211": "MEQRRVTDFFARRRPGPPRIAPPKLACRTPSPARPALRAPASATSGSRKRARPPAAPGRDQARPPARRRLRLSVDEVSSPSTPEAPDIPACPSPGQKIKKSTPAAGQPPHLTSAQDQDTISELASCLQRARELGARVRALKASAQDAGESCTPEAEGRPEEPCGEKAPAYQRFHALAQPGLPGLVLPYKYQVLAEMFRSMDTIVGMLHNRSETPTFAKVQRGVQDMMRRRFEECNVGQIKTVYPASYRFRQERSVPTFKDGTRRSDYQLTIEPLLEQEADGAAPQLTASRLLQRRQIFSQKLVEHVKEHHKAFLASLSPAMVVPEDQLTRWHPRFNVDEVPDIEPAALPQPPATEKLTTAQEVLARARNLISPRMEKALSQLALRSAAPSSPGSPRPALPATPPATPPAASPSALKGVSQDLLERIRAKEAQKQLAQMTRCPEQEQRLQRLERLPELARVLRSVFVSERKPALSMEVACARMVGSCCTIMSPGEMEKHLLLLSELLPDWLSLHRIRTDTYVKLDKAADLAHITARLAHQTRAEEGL", "UniProt Q9H190": "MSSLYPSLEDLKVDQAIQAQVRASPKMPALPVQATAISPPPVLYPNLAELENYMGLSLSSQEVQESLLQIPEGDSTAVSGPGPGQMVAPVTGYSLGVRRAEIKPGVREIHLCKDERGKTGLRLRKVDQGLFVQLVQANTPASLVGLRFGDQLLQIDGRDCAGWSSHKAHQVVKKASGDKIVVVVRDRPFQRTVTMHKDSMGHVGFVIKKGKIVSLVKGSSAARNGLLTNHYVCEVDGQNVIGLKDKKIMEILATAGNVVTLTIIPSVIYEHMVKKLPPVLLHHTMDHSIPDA", "UniProt Q9H1I8": "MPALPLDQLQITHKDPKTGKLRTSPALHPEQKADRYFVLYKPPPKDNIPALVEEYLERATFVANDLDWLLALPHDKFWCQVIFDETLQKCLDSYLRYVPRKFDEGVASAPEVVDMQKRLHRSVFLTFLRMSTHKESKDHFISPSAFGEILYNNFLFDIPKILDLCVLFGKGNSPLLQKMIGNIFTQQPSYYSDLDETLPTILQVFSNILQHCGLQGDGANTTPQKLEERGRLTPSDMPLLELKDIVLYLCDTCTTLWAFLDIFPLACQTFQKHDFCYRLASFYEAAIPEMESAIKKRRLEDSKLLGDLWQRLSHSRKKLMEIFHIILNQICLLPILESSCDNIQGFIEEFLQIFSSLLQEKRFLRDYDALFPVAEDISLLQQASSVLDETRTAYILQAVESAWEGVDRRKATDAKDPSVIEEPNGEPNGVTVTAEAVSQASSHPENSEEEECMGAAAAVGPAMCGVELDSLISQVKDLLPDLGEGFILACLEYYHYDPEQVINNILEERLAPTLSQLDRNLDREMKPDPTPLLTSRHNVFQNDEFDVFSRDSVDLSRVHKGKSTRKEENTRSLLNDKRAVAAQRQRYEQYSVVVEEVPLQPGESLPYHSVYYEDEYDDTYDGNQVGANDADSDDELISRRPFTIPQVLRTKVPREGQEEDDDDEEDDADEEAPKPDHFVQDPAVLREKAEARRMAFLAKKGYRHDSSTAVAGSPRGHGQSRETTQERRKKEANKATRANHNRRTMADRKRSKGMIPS"}, "source": "the supplement of paper PMC12819154", "about": "“High-throughput peptide-centric local stability assay extends protein–ligand identification to membrane proteins, tissues and bacteria” (Nature Structural & Molecular Biology, 2025)", "note": "Some of the results follow. Small differences around the control level are noise."}
{"compound": "CN[C@@H]1C[C@H]2O[C@@](C)([C@@H]1OC)n1c3ccccc3c3c4c(c5c6ccccc6n2c5c31)C(=O)NC4 [staurosporine]", "experiment": "log2 fold change of tryptic peptide abundance, ligand vs vehicle (limited proteolysis) (log2 ratio); higher = more trypsin-susceptible (destabilized)", "settings": "ligand concentration: 20 uM; sample: K562 cleared lysate; digestion: 4 min, 22 C (HT-PELSA RT4min, Orbitrap Astral)"}
{"target": "WDR13 (peptide sequence: MEDFEDDPR, peptide start residue: 93) (UniProt Q9H1Z4)", "log2 fold change": 0.105}
{"target": "UPF3B (peptide sequence: RPEDESGRDYR, peptide start residue: 336) (UniProt Q9BZI7)", "log2 fold change": -0.34}
{"target": "MKRN2 (peptide sequence: QLSSQGTVR, peptide start residue: 363) (UniProt Q9H000)", "log2 fold change": 0.509}
{"target": "UniProt Q9H1M0 (peptide sequence: ILHGEVNK, peptide start residue: 118)", "log2 fold change": 0.163}
{"target": "UniProt Q9H0A9 (peptide sequence: SLDGSVDER, peptide start residue: 237)", "log2 fold change": 0.353}
{"target": "TBC1D2 (peptide sequence: TQNCFLNSEIHQVTK, peptide start residue: 466) (UniProt Q9BYX2)", "log2 fold change": -0.603}
{"target": "BLZF1 (peptide sequence: NTAQLSEQLER, peptide start residue: 197) (UniProt Q9H2G9)", "log2 fold change": 0.556}
{"target": "UniProt Q9BWN1 (peptide sequence: LSPWGLAPLFR, peptide start residue: 241)", "log2 fold change": 0.237}
{"target": "CDT1 (peptide sequence: SAAPSSPGSPR, peptide start residue: 386) (UniProt Q9H211)", "log2 fold change": 0.271}
{"target": "UniProt Q9H190 (peptide sequence: FGDQLLQIDGR, peptide start residue: 148)", "log2 fold change": -0.173}
{"target": "ASCC2 (peptide sequence: PALPLDQLQITHKDPK, peptide start residue: 2) (UniProt Q9H1I8)", "log2 fold change": 0.183}
